Measurements published in US20260232812A1, “BIFUNCTIONAL MOLECULES FOR TARGETED PROTEIN DEGRADATION” (Amphista Therapeutics Limited, priority 2022, published 2026).
Some entries share one result that the patent states for a list of compounds.

Molecular target: T1, BRD4 (Homo sapiens, UniProt O60885)
T1 construct: HEK293 containing a HiBit insertion for BRD4; endogenous in cells; host or cells: HEK293 with a HiBiT insertion for BRD4
Experiment: Assay 1 - Degradation of HiBit-BRD4 in HEK293
Format: cell-based
Conditions: HiBit-BRD4 in HEK293, 6 h treatment
Method: 1.1 Assay 1-Degradation of HiBit-BRD4 in HEK293
HEK293 containing a HiBit insertion for BRD4 were plated in 384-well tissue culture plates at a density of 8×10^4 per well in a volume of 36 μL and incubated overnight at 37° C. and 5% CO2. Wells were treated with test compounds for 6 h prior to addition of the NanoLuc substrate and reading on a […]. Degradation data was plotted and analysed using […] (Graphpad).

Row | Structure (SMILES) | DC50
1 | CC(=O)N1c2ccc(-c3ccc(C(=O)NCCCCCNC(=O)[C@@H]4CN(C(=O)/C(C#N)=C/c5nccs5)C[C@H]4c4cc(F)cc(F)c4)cc3)cc2[C@H](Nc2ccc(Cl)cc2)C[C@@H]1C [Example 8g] | < 500 nM
2 | CC(=O)N1c2ccc(-c3ccc(C(=O)NCCCCCNC(=O)C4CC(c5cccc(C)c5)CN(C(=O)/C(C#N)=C/c5nccs5)C4)cc3)cc2[C@H](Nc2ccc(Cl)cc2)C[C@@H]1C (stereo partly drawn) [Example 8a, N-(5-(4-((2S,4R)-1-acetyl-4-((4-chlorophenyl)amino)-2-methyl-1,2,3,4-tetrahydroquinolin-6-yl)benzamido)pentyl)-1-(2-cyanoacetyl)-5-(m-tolyl)piperidine-3-carboxamide] | < 500 nM
